Assay results reported in the supplement of paper PMC8728848.
The other results are listed elsewhere or left out.

What was measured:
Assay in all cases: glycan array binding signal (z-score within array); higher = stronger binding
Details in all cases: glycan notation: IUPAC condensed, linker removed
Fuc(a1-3)GlcNAc = biological target: Fuc(a1-3)GlcNAc
Procedure, shortened: (§1)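 From the Consortium for Functional Glycomics database, 3228 arrays were curated, keeping only those whose protein sequence was available. Binding is given as a within-array Z-score averaged across arrays sharing a protein sequence and across linkers. Negative Z-scores can be read as non-binding.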

[1] = biological target: Fuc(a1-3)[Gal(b1-4)]Glc6S
Procedure, shortened: as §1

[2] = biological target: Fuc(a1-3)[Gal(b1-4)]GlcNAc
Procedure, shortened: as §1

[3] = biological target: Fuc(a1-3)[Gal(b1-4)]GlcNAc(b1-2)Man
Procedure, shortened: as §1

[4] = biological target: Fuc(a1-3)[Gal(b1-4)]GlcNAc(b1-2)Man(a1-3)[Fuc(a1-3)[Gal(b1-4)]GlcNAc(b1-2)Man(a1-6)]Man(b1-4)GlcNAc(b1-4)GlcNAc
Procedure, shortened: as §1

[5] = biological target: Fuc(a1-3)[Gal(b1-4)]GlcNAc(b1-2)Man(a1-3)[Fuc(a1-3)[Gal(b1-4)]GlcNAc(b1-2)Man(a1-6)]Man(b1-4)GlcNAc(b1-4)[Fuc(a1-6)]GlcNAc
Procedure, shortened: as §1

[6] = biological target: Fuc(a1-3)[Gal(b1-4)]GlcNAc(b1-3)Gal(b1-3)[Fuc(a1-4)]GlcNAc
Procedure, shortened: as §1

[7] = biological target: Fuc(a1-3)[Gal(b1-4)]GlcNAc(b1-3)Gal(b1-4)[Fuc(a1-3)]GlcNAc
Procedure, shortened: as §1

[8] = biological target: Fuc(a1-3)[Gal(b1-4)]GlcNAc(b1-3)Gal(b1-4)[Fuc(a1-3)]GlcNAc(b1-3)Gal(b1-4)[Fuc(a1-3)]GlcNAc
Procedure, shortened: as §1

[9] = biological target: Fuc(a1-3)[Gal(b1-4)]GlcNAc(b1-3)GalNAc
Procedure, shortened: as §1

[10] = biological target: Fuc(a1-3)[Gal(b1-4)]GlcNAc(b1-6)GalNAc
Procedure, shortened: as §1

[11] = biological target: Fuc(a1-3)[Gal(b1-4)]GlcNAc(b1-6)[Gal(b1-3)GlcNAc(b1-3)]Gal(b1-4)Glc
Procedure, shortened: as §1

[12] = biological target: Fuc(a1-3)[Gal(b1-4)]GlcNAc6S
Procedure, shortened: as §1

[13] = biological target: Fuc(a1-3)[Gal3S(b1-4)]Glc
Procedure, shortened: as §1

[14] = biological target: Fuc(a1-3)[Gal3S(b1-4)]GlcNAc
Procedure, shortened: as §1

[15] = biological target: Fuc(a1-3)[Gal3S(b1-4)]GlcNAc6S
Procedure, shortened: as §1

[16] = biological target: Fuc(a1-3)[GalNAc(b1-4)]GlcNAc
Procedure, shortened: as §1

[17] = biological target: Fuc(a1-3)[GalNAc(b1-4)]GlcNAc6S
Procedure, shortened: as §1

Fuc(a1-4)GlcNAc = biological target: Fuc(a1-4)GlcNAc
Procedure, shortened: as §1

Fuc(b1-3)GlcNAc = biological target: Fuc(b1-3)GlcNAc
Procedure, shortened: as §1

Gal(a1-2)Gal = biological target: Gal(a1-2)Gal
Procedure, shortened: as §1

Gal(a1-3)Gal = biological target: Gal(a1-3)Gal
Procedure, shortened: as §1

Gal(a1-3)Gal(b1-3)GlcNAc = biological target: Gal(a1-3)Gal(b1-3)GlcNAc
Procedure, shortened: as §1

[18] = biological target: Gal(a1-3)Gal(b1-3)GlcNAc(b1-2)Man
Procedure, shortened: as §1

[19] = biological target: Gal(a1-3)Gal(b1-3)GlcNAc(b1-2)Man(a1-3)[Gal(a1-3)Gal(b1-3)GlcNAc(b1-2)Man(a1-6)]Man(b1-4)GlcNAc(b1-4)GlcNAc
Procedure, shortened: as §1

[20] = biological target: Gal(a1-3)Gal(b1-3)GlcNAc(b1-3)GalNAc
Procedure, shortened: as §1

[21] = biological target: Gal(a1-3)Gal(b1-3)GlcNAc(b1-6)GalNAc
Procedure, shortened: as §1

[22] = biological target: Gal(a1-3)Gal(b1-3)[Fuc(a1-4)]GlcNAc(b1-2)Man(a1-3)[Gal(a1-3)Gal(b1-3)[Fuc(a1-4)]GlcNAc(b1-2)Man(a1-6)]Man(b1-4)GlcNAc(b1-4)GlcNAc
Procedure, shortened: as §1

Gal(a1-3)Gal(b1-4)Glc = biological target: Gal(a1-3)Gal(b1-4)Glc
Procedure, shortened: as §1

Gal(a1-3)Gal(b1-4)GlcNAc = biological target: Gal(a1-3)Gal(b1-4)GlcNAc
Procedure, shortened: as §1

[23] = biological target: Gal(a1-3)Gal(b1-4)GlcNAc(b1-2)Man
Procedure, shortened: as §1

[24] = biological target: Gal(a1-3)Gal(b1-4)GlcNAc(b1-2)Man(a1-3)[Gal(a1-3)Gal(b1-4)GlcNAc(b1-2)Man(a1-6)]Man(b1-4)GlcNAc(b1-4)GlcNAc
Procedure, shortened: as §1

[25] = biological target: Gal(a1-3)Gal(b1-4)GlcNAc(b1-3)GalNAc
Procedure, shortened: as §1

[26] = biological target: Gal(a1-3)Gal(b1-4)GlcNAc(b1-6)GalNAc
Procedure, shortened: as §1

[27] = biological target: Gal(a1-3)Gal(b1-4)[Fuc(a1-3)]GlcNAc
Procedure, shortened: as §1

[28] = biological target: Gal(a1-3)Gal(b1-4)[Fuc(a1-3)]GlcNAc(b1-2)Man(a1-3)[Gal(a1-3)Gal(b1-4)[Fuc(a1-3)]GlcNAc(b1-2)Man(a1-6)]Man(b1-4)GlcNAc(b1-4)GlcNAc
Procedure, shortened: as §1

Gal(a1-3)GalNAc = biological target: Gal(a1-3)GalNAc
Procedure, shortened: as §1

B1: Aap brpt (Staphylococcus epidermidis) (protein)
chain: VDGDPITSTEEIPFDKKREFDPNLAPGTEKVVQKGEPGTKTITTPTTKNPLTGEKVGEGEPTEKITKQPVDEIVHYGGEEIKTGHKDEFDPNAPKGSQTTQPGKPGVKNPDTGEVVTPPVDDVTKYGPVDGDPITSTEEIPFDKKREFDPNLAPGTEKVVQKGEPGTKTITTPTTKNPLTGEKVGEGEPTEKITKQPVDEIVHYGGEEIKPGHKDEFDPNAPKGSQEDVPGKPGVKNPDTGEVVTPPVDDVTKYGPVDGDSITSTEEIPFDKKREFDPNLAPGTEKVVQKGEPGTKTITTPTTKNPLTGEKVGEGEPTEKITKQPVDEIVHYGGEQIPQGHKDEFDPNAPVDSKTEVPGKPGVKNPDTGEVVTPPVDDVTKYGPVDGDSITSTEEIPFDKKREFDPNLAPGTEKVVQKGEPGTKTITTPTTKNPLTGEKVGEGKSTEKVTKQPVDEIVEYGPTK
Fuc(a1-3)GlcNAc
  glycan array binding signal (z-score): -0.922
[1]
  glycan array binding signal (z-score): 0.738
[2]
  glycan array binding signal (z-score): -0.26
[3]
  glycan array binding signal (z-score): -0.698
[4]
  glycan array binding signal (z-score): -1.23
[5]
  glycan array binding signal (z-score): 0.06
[6]
  glycan array binding signal (z-score): 0.103
[7]
  glycan array binding signal (z-score): -0.164
[8]
  glycan array binding signal (z-score): -1.34
[9]
  glycan array binding signal (z-score): 0.052
[10]
  glycan array binding signal (z-score): 0.4
[11]
  glycan array binding signal (z-score): 0.86
[12]
  glycan array binding signal (z-score): 0.059
[13]
  glycan array binding signal (z-score): 0.077
[14]
  glycan array binding signal (z-score): 0.583
[15]
  glycan array binding signal (z-score): 0.794
[16]
  glycan array binding signal (z-score): -0.763
[17]
  glycan array binding signal (z-score): -0.612
Fuc(a1-4)GlcNAc
  glycan array binding signal (z-score): 0.26
Fuc(b1-3)GlcNAc
  glycan array binding signal (z-score): -0.794
Gal(a1-2)Gal
  glycan array binding signal (z-score): -1.61
Gal(a1-3)Gal
  glycan array binding signal (z-score): 2.41
Gal(a1-3)Gal(b1-3)GlcNAc
  glycan array binding signal (z-score): -0.608
[18]
  glycan array binding signal (z-score): -0.752
[19]
  glycan array binding signal (z-score): 0.422
[20]
  glycan array binding signal (z-score): -0.777
[21]
  glycan array binding signal (z-score): -1.32
[22]
  glycan array binding signal (z-score): 0.664
Gal(a1-3)Gal(b1-4)Glc
  glycan array binding signal (z-score): 0.985
Gal(a1-3)Gal(b1-4)GlcNAc
  glycan array binding signal (z-score): -1.84
[23]
  glycan array binding signal (z-score): -0.287
[24]
  glycan array binding signal (z-score): -0.042
[25]
  glycan array binding signal (z-score): -1.4
[26]
  glycan array binding signal (z-score): -0.468
[27]
  glycan array binding signal (z-score): -0.268
[28]
  glycan array binding signal (z-score): 0.481
Gal(a1-3)GalNAc
  glycan array binding signal (z-score): -1.05
